Values of other authors, collected in US12139470B2, “Trioxolane agents” (The Regents of the University of California, priority 2017, dated 2024).
At least one structure is not confirmed: it was looked up by name or label, or the drawing left a doubt.

Tests used:
[1] = test system: K13 revertant strain bearing the wild type K13 allele; settings: pulsed exposure; cited from earlier work
[2] = test system: clinical K13-mutant strain; settings: pulsed exposure; cited from earlier work

C[C@H]1[C@@H](O)O[C@@H]2O[C@@]3(C)CC[C@H]4[C@H](C)CC[C@@H]1[C@@]24OO3 [DHA, dihydroartemisinin]
time to reduce early ring viability by 50% (t50) [1]: ~1 h | time to reduce early ring viability by 50% (t50) [2]: ~3 h
